No constants are given. Whether binding was seen depends on the method and setting. Some results given as binding are weak or reduced against the parent protein; the word gives no strength.

Protein sequences, listed by entry. Tags and fused reporters are not part of them. Residues count along the entry.
UniProt O14763, residues 52-183: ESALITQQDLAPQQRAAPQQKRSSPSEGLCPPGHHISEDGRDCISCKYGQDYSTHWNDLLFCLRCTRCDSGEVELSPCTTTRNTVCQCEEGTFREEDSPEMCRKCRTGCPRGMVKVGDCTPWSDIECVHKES

The target in test [1] is TRAIL R2 (human) (UniProt O14763). Put plainly: capture ELISA: His-tagged Tn3 on anti-His antibody, biotinylated TRAIL R2. (In general: An ELISA detects its analyte on a solid surface through an enzyme-linked reagent.)
Test [2] has as its target human TRAIL R2-Fc (human) (UniProt O14763). Nature of the test: capture ELISA: His-tagged construct captured from E. coli media on anti-His antibody, biotinylated TRAIL R2 (axis: TrailR2-Fc) titrated, streptavidin-HRP.

B1: A1 (1E11) (designed binder)
chain: AIEVKDVTDTTALITWAKPWVDPPPLWGCELAYGIKDVPGDRTTIDLQQKHTAYSIGNLKPDTEYEVSLICFDPYGAKSNPAKETFTTGGGTLGHHHHHHHH
For B1, the binding entry in test [1] and in test [2] was “binds” each time.
